Experimental data: PubChem BioAssay AID1508597 (Cure First, 2020)

Assay: 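Knock-downs altering ovarian cancer cell survival with or without PARP inhibitor rucaparib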 (primary screen)
Cells: human ovarian carcinoma lines grown from tumours: OCI-P5x (papillary serous) and OCI-C5x (clear cell)
Knock-down reagent: siRNA pool against human genes, 1.25 pmol siRNA per well
Timing: 72 h or 96 h, depending on the cell culture
Challenge: rucaparib 20 µM (about IC30) or vehicle, present until read-out
Rucaparib or vehicle: Vehicle
Cell line: OCI-P5x (serous)
Read-out: 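Luminescent ATP-based viability assay read 72 or 96 h after transfection, depending on culture, given as normalised percent viability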
Scale: viability, normalised: higher = more viable cells remaining
Hit rule: 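a well counts as a hit if its normalised viability is under 80 percent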
Calls: active = viability under 80%; inactive = viability 80% or more
Shown is a random part of the about 2,100 reagents, in one setting of the screen. 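Calls flag viability under 80% in either arm, not effects specific to rucaparib; the reference for percent is not stated.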 Unmarked entries are inactive. A reagent listed more than once was tested more than once; the source does not tell the runs apart. The record does not give: the 100% reference.

no.	target	technical replicate	viability, normalised (%)
1	FAN1 (FANCD2 and FANCI associated nuclease 1)	1	91.3
2	FAN1 (FANCD2 and FANCI associated nuclease 1)	2	82.7
3	FAN1 (FANCD2 and FANCI associated nuclease 1)	3	85.1
4	ARID5B (AT-rich interaction domain 5B)	1	48.6 (active)
5	ARID5B (AT-rich interaction domain 5B)	2	57.1 (active)
6	ARID5B (AT-rich interaction domain 5B)	3	52.6 (active)
7	RIPK2 (receptor interacting serine/threonine kinase 2)	1	96.9
8	RIPK2 (receptor interacting serine/threonine kinase 2)	2	92
9	RIPK2 (receptor interacting serine/threonine kinase 2)	3	73.7 (active)
10	KIF4A (kinesin family member 4A)	1	86.9
11	KIF4A (kinesin family member 4A)	2	87.7
12	KIF4A (kinesin family member 4A)	3	87
13	GTF2H2 (general transcription factor IIH subunit 2)	1	70 (active)
14	GTF2H2 (general transcription factor IIH subunit 2)	2	69.3 (active)
15	GTF2H2 (general transcription factor IIH subunit 2)	3	76.5 (active)
16	CDK13 (cyclin dependent kinase 13)	1	64.6 (active)
17	CDK13 (cyclin dependent kinase 13)	2	68.6 (active)
18	CDK13 (cyclin dependent kinase 13)	3	82.8
19	ATR (ATR checkpoint kinase)	1	89.2
20	ATR (ATR checkpoint kinase)	1	80.8
21	ATR (ATR checkpoint kinase)	2	79.8 (active)
22	ATR (ATR checkpoint kinase)	2	74.1 (active)
23	ATR (ATR checkpoint kinase)	3	82.8
24	ATR (ATR checkpoint kinase)	3	74.1 (active)
25	SIRT7 (sirtuin 7)	1	50 (active)
26	SIRT7 (sirtuin 7)	2	50.3 (active)
27	SIRT7 (sirtuin 7)	3	59.1 (active)
28	DNER (delta/notch like EGF repeat containing)	1	74.1 (active)
29	DNER (delta/notch like EGF repeat containing)	2	65.2 (active)
30	DNER (delta/notch like EGF repeat containing)	3	79.7 (active)
31	LTK (leukocyte receptor tyrosine kinase)	1	63.2 (active)
32	LTK (leukocyte receptor tyrosine kinase)	2	54.5 (active)
33	LTK (leukocyte receptor tyrosine kinase)	3	62.8 (active)
34	RAD9A (RAD9 checkpoint clamp component A)	1	77.8 (active)
35	RAD9A (RAD9 checkpoint clamp component A)	2	72.7 (active)
36	RAD9A (RAD9 checkpoint clamp component A)	3	107
37	USP28 (ubiquitin specific peptidase 28)	1	63.3 (active)
38	USP28 (ubiquitin specific peptidase 28)	2	78.6 (active)
39	USP28 (ubiquitin specific peptidase 28)	3	80.3
40	TIPARP (TCDD inducible poly(ADP-ribose) polymerase)	1	57.2 (active)
41	TIPARP (TCDD inducible poly(ADP-ribose) polymerase)	2	43.2 (active)
42	TIPARP (TCDD inducible poly(ADP-ribose) polymerase)	3	43.3 (active)
43	EPHA5 (EPH receptor A5)	1	106
44	EPHA5 (EPH receptor A5)	2	76.6 (active)
45	EPHA5 (EPH receptor A5)	3	102
46	ELP3 (elongator acetyltransferase complex subunit 3)	1	60 (active)
47	ELP3 (elongator acetyltransferase complex subunit 3)	2	70.2 (active)
48	ELP3 (elongator acetyltransferase complex subunit 3)	3	61.5 (active)
49	POU5F1B (POU class 5 homeobox 1B)	1	65.3 (active)
50	POU5F1B (POU class 5 homeobox 1B)	2	57.5 (active)
51	POU5F1B (POU class 5 homeobox 1B)	3	62.8 (active)
52	RAD17 (RAD17 checkpoint clamp loader component)	1	63.8 (active)
53	RAD17 (RAD17 checkpoint clamp loader component)	2	67.2 (active)
54	RAD17 (RAD17 checkpoint clamp loader component)	3	53.6 (active)
55	HNRNPM (heterogeneous nuclear ribonucleoprotein M)	1	74.6 (active)
56	HNRNPM (heterogeneous nuclear ribonucleoprotein M)	2	71.9 (active)
57	HNRNPM (heterogeneous nuclear ribonucleoprotein M)	3	60.2 (active)
58	CLDN20 (claudin 20)	1	77.9 (active)
59	CLDN20 (claudin 20)	2	60.8 (active)
60	CLDN20 (claudin 20)	3	72 (active)
61	FANCD2 (FA complementation group D2)	1	82.3
62	FANCD2 (FA complementation group D2)	1	70.4 (active)
63	FANCD2 (FA complementation group D2)	2	75.9 (active)
64	FANCD2 (FA complementation group D2)	2	54.9 (active)
65	FANCD2 (FA complementation group D2)	3	67.6 (active)
66	FANCD2 (FA complementation group D2)	3	69.1 (active)
67	PRKD3 (protein kinase D3)	1	97.1
68	PRKD3 (protein kinase D3)	2	93.2
69	PRKD3 (protein kinase D3)	3	61.9 (active)
70	TERF1 (telomeric repeat binding factor 1)	1	51.9 (active)
71	TERF1 (telomeric repeat binding factor 1)	1	49.9 (active)
72	TERF1 (telomeric repeat binding factor 1)	2	60.8 (active)
73	TERF1 (telomeric repeat binding factor 1)	2	47 (active)
74	TERF1 (telomeric repeat binding factor 1)	3	72.5 (active)
75	TERF1 (telomeric repeat binding factor 1)	3	52.2 (active)

Laid out differently: 5 of the entries above
target	technical replicate	viability, normalised (%)
HNRNPM (heterogeneous nuclear ribonucleoprotein M)	1	74.6 (active)
HNRNPM (heterogeneous nuclear ribonucleoprotein M)	2	71.9 (active)
HNRNPM (heterogeneous nuclear ribonucleoprotein M)	3	60.2 (active)
CLDN20 (claudin 20)	1	77.9 (active)
CLDN20 (claudin 20)	2	60.8 (active)
